These are yes or no findings as the source states them, for the method shown. Binding seen in cells or lysates may run through a third protein. Here binding means that the protein was enriched with, or labelled near, the bait; the list need not be complete.
Target: YAP (endogenous, SF268 cells) (human (endogenous in SF268)) (UniProt P46937)
Assay: affinity purification with mass spectrometry; IP of endogenous YAP from SF268 lysate (RIPA buffer); prominent bands cut from a Coomassie-stained gel, LC-MS

The chains behind the UniProt entries cited, without tags or fusion partners.
UniProt Q9Y2J4: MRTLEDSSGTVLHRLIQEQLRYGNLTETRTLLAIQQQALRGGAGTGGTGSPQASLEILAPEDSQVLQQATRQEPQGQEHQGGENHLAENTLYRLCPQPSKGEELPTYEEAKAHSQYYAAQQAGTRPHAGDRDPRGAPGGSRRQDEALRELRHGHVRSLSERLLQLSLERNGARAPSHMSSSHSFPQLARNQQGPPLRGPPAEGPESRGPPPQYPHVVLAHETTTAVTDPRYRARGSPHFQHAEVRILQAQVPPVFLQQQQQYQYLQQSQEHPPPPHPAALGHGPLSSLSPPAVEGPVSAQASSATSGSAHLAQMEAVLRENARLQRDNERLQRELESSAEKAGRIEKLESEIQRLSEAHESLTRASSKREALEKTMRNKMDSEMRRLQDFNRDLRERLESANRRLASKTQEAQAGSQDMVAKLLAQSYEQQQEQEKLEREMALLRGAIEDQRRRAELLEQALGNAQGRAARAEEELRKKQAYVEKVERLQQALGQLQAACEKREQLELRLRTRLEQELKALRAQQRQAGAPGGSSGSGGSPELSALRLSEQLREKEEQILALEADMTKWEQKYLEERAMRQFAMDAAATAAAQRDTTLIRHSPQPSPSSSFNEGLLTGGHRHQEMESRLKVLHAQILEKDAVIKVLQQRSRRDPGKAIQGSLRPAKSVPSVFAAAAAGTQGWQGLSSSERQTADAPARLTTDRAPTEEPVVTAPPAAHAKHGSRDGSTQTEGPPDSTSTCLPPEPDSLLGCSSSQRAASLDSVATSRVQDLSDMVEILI

| binding | Molecule |
| --- | --- |
| binds | AMOTL2 (endogenous, SF268 cells) (from UniProt Q9Y2J4 1-779) |
| binds | AMOTL1 (endogenous, SF268 cells) (protein, UniProt Q8IY63 1-956) MWRAKLRRGTCEPAVKGSPSACYSPSSPVQVLEDSTYFSPDFQLYSGRHETSALTVEATSSIREKVVEDPLCNFHSPNFLRISEVEMRGSEDAAAGTVLQRLIQEQLRYGTPTENMNLLAIQHQATGSAGPAHPTNNFSSTENLTQEDPQMVYQSARQEPQGQEHQVDNTVMEKQVRSTQPQQNNEELPTYEEAKAQSQFFRGQQQQQQQQGAVGHGYYMAGGTSQKSRTEGRPTVNRANSGQAHKDEALKELKQGHVRSLSERIMQLSLERNGAKQHLPGSGNGKGFKVGGGPSPAQPAGKVLDPRGPPPEYPFKTKQMMSPVSKTQEHGLFYGDQHPGMLHEMVKPYPAPQPVRTDVAVLRYQPPPEYGVTSRPCQLPFPSTMQQHSPMSSQTSSASGPLHSVSLPLPLPMALGAPQPPPAASPSQQLGPDAFAIVERAQQMVEILTEENRVLHQELQGYYDNADKLHKFEKELQRISEAYESLVKSTTKRESLDKAMRNKLEGEIRRLHDFNRDLRDRLETANRQLSSREYEGHEDKAAEGHYASQNKEFLKEKEKLEMELAAVRTASEDHRRHIEILDQALSNAQARVIKLEEELREKQAYVEKVEKLQQALTQLQSACEKREQMERRLRTWLERELDALRTQQKHGNGQPANMPEYNAPALLELVREKEERILALEADMTKWEQKYLEESTIRHFAMNAAATAAAERDTTIINHSRNGSYGESSLEAHIWQEEEEVVQANRRCQDMEYTIKNLHAKIIEKDAMIKVLQQRSRKDAGKTDSSSLRPARSVPSIAAATGTHSRQTSLTSSQLAEEKKEEKTWKGSIGLLLGKEHHEHASAPLLPPPPTSALSSIASTTAASSAHAKTGSKDSSTQTDKSAELFWPSMASLPSRGRLSTTPAHSPVLKHPAAKGTAEKLENSPGHGKSPDHRGRVSSLLHKPEFPDGEMMEVLI |

Source: paper PMC3628344
